Measurements reported in PubChem BioAssay AID1259283 (Sanger Institute, 2017)

- Purpose: 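Kinases needed for HT115 growth and partners for drug synergy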 (primary screen)
- System: HT115 colorectal cancer cells
- Reagents: siRNA pool against human genes
- Treatment: anchor drug given one day after siRNA: BYL719 at 1 µM, cetuximab at 5 µg/ml, trametinib at 10 nM, or DMSO vehicle alone
- Measured: 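Per-drug synergy scores plus replicate-mean viability relative to non-targeting pool #2 wells, also expressed as a robust z-score based on control wells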
- Scale: robust z-score, knock-down alone: higher = more viable cells after knock-down; viability, DMSO vs non-targeting control: higher = more viable cells; synergy score with BYL719 and synergy score with cetuximab and synergy score with trametinib: higher = stronger synergy with drug (synthetic lethal)
- Call rule: 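a gene counts as essential when its robust z-score with knock-down alone is below -3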
- Calls: active = essential (z below -3, no drug); inactive = no change without drug
In all, the deposit lists 794 reagents; this is a part drawn at random. Over the whole deposit, 14 (1.8%) got an active call. 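Calls reflect only viability loss without drug; drug synergy does not enter the call.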 Entries without a mark were called inactive. No viability above 1 is reported: the scale is capped. The record does not give: the amount of reagent, the time to read-out.

target | robust z-score, knock-down alone | viability, DMSO vs non-targeting control (fraction of control) | synergy score with BYL719 | synergy score with cetuximab | synergy score with trametinib
DUSP21 | 0.789 | 1 | 0.00406 | 0.0299 | -0.0362
TRPM7 | -0.82 | 0.851 | 0.0118 | 0.0844 | 0.0751
CSNK1D | 0.409 | 0.965 | 0.043 | 0.0607 | 0.138
EGFR | 0.601 | 0.983 | 0.165 | 0.0903 | 0.103
BTK | 0.425 | 0.966 | 0.0203 | 0.131 | 0.0128
FCSK | -0.704 | 0.862 | -0.061 | 0.0404 | 0.0102
EPHB3 | -2.07 | 0.736 | -0.0206 | 0.119 | 0.205
NEK8 | -0.621 | 0.87 | 0.081 | 0.00933 | 0.0984
EFNA4 | 0.712 | 0.993 | -0.0294 | 0.0289 | 0.00232
CDKL1 | 0.789 | 1 | -0.00823 | 0.084 | 0.0127
STK26 | 0.789 | 1 | 0.06 | 0.0108 | 0.0475
MAST3 | 0.789 | 1 | 0.0401 | 0.00833 | 0.22
PNCK | 0.789 | 1 | -0.0224 | 0.0155 | 0.0978
PDK1 | 0.00057 | 0.927 | -0.0907 | -0.0129 | 0.149
CDK6 | 0.789 | 1 | 0.00646 | 0.0945 | -0.0177
BRD2 | -0.632 | 0.869 | -0.0577 | -0.0584 | -0.093
CDC42BPB | 0.213 | 0.947 | -0.034 | 0.0586 | 0.109
PLK3 | 0.493 | 0.973 | 0.103 | -0.00746 | -0.0571
STK17B | 0.789 | 1 | 0.0975 | 0.0934 | 0.0897
EPHA7 | -2.49 | 0.697 | -0.0723 | -0.0773 | 0.0523

2 entries from above, ordered by “synergy score with BYL719”, low to high.
target | robust z-score, knock-down alone | viability, DMSO vs non-targeting control (fraction of control) | synergy score with BYL719 | synergy score with cetuximab | synergy score with trametinib
CSNK1D | 0.409 | 0.965 | 0.043 | 0.0607 | 0.138
EGFR | 0.601 | 0.983 | 0.165 | 0.0903 | 0.103
